# From the supplement of paper PMC8728848
# Some of the results follow.
# Key:
# Test in all cases: glycan array binding signal (z-score within array); higher = stronger binding
# Conditions in all cases: glycan notation: IUPAC condensed, linker removed
# [1] = target: GlcNAc(b1-2)Gal(b1-3)GalNAc
# Outline: (§1)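 Columns mapping to the same glycan were averaged after glycan names were converted to IUPAC-condensed notation. The data come from 3228 arrays in the Consortium for Functional Glycomics database, limited to those with an available protein sequence. Binding is reported as a within-array Z-score averaged across arrays of one protein sequence and across linkers.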
# [2] = target: GlcNAc(b1-2)Man(a1-3)[GlcNAc(b1-2)Man(a1-6)]Man(b1-4)GlcNAc(b1-4)GlcNAc
# Outline: as §1
# [3] = target: GlcNAc(b1-2)Man(a1-3)[GlcNAc(b1-2)Man(a1-6)]Man(b1-4)GlcNAc(b1-4)[Fuc(a1-6)]GlcNAc
# Outline: as §1
# [4] = target: GlcNAc(b1-2)Man(a1-3)[GlcNAc(b1-4)][GlcNAc(b1-2)Man(a1-6)]Man(b1-4)GlcNAc(b1-4)GlcNAc
# Outline: as §1
# [5] = target: GlcNAc(b1-2)Man(a1-3)[GlcNAc(b1-4)][GlcNAc(b1-2)Man(a1-6)]Man(b1-4)GlcNAc(b1-4)[Fuc(a1-6)]GlcNAc
# Outline: as §1
# [6] = target: GlcNAc(b1-2)[GlcNAc(b1-4)]Man(a1-3)[GlcNAc(b1-2)Man(a1-6)]Man(b1-4)GlcNAc(b1-4)GlcNAc
# Outline: as §1
# [7] = target: GlcNAc(b1-2)[GlcNAc(b1-4)]Man(a1-3)[GlcNAc(b1-4)][GlcNAc(b1-2)Man(a1-6)]Man(b1-4)GlcNAc(b1-4)GlcNAc
# Outline: as §1
# [8] = target: GlcNAc(b1-2)[GlcNAc(b1-4)]Man(a1-3)[GlcNAc(b1-4)][GlcNAc(b1-2)[GlcNAc(b1-6)]Man(a1-6)]Man(b1-4)GlcNAc(b1-4)GlcNAc
# Outline: as §1
# [9] = target: GlcNAc(b1-2)[GlcNAc(b1-4)]Man(a1-3)[GlcNAc(b1-4)][GlcNAc(b1-2)[GlcNAc(b1-6)]Man(a1-6)]Man(b1-4)GlcNAc(b1-4)[Fuc(a1-6)]GlcNAc
# Outline: as §1
# [10] = target: GlcNAc(b1-2)[GlcNAc(b1-6)]Man(a1-6)[GlcNAc(b1-2)Man(a1-3)]Man(b1-4)GlcNAc(b1-4)GlcNAc
# Outline: as §1
# [11] = target: GlcNAc(b1-2)[GlcNAc(b1-6)]Man(a1-6)[GlcNAc(b1-2)Man(a1-3)]Man(b1-4)GlcNAc(b1-4)[Fuc(a1-6)]GlcNAc
# Outline: as §1
# [12] = target: GlcNAc(b1-2)[GlcNAc(b1-6)]Man(a1-6)[GlcNAc(b1-4)][GlcNAc(b1-2)Man(a1-3)]Man(b1-4)GlcNAc(b1-4)GlcNAc
# Outline: as §1
# [13] = target: GlcNAc(b1-3)Fuc
# Outline: as §1
# [14] = target: GlcNAc(b1-3)Gal
# Outline: as §1
# [15] = target: GlcNAc(b1-3)Gal(b1-3)GalNAc
# Outline: as §1
# [16] = target: GlcNAc(b1-3)Gal(b1-4)Glc
# Outline: as §1
# [17] = target: GlcNAc(b1-3)Gal(b1-4)GlcNAc
# Outline: as §1
# [18] = target: GlcNAc(b1-3)Gal(b1-4)GlcNAc(b1-2)Man(a1-3)[GlcNAc(b1-3)Gal(b1-4)GlcNAc(b1-2)Man(a1-6)]Man(b1-4)GlcNAc(b1-4)GlcNAc
# Outline: as §1
# [19] = target: GlcNAc(b1-3)Gal(b1-4)GlcNAc(b1-2)Man(a1-3)[GlcNAc(b1-3)Gal(b1-4)GlcNAc(b1-2)Man(a1-6)]Man(b1-4)GlcNAc(b1-4)[Fuc(a1-6)]GlcNAc
# Outline: as §1
# [20] = target: GlcNAc(b1-3)Gal(b1-4)GlcNAc(b1-2)[GlcNAc(b1-3)Gal(b1-4)GlcNAc(b1-6)]Man(a1-6)[GlcNAc(b1-3)Gal(b1-4)GlcNAc(b1-2)Man(a1-3)]Man(b1-4)GlcNAc(b1-4)GlcNAc
# Outline: as §1
# [21] = target: GlcNAc(b1-3)Gal(b1-4)GlcNAc(b1-3)Gal(b1-4)GlcNAc
# Outline: as §1
# [22] = target: GlcNAc(b1-3)Gal(b1-4)GlcNAc(b1-3)Gal(b1-4)GlcNAc(b1-2)Man(a1-3)[GlcNAc(b1-3)Gal(b1-4)GlcNAc(b1-3)Gal(b1-4)GlcNAc(b1-2)Man(a1-6)]Man(b1-4)GlcNAc(b1-4)GlcNAc
# Outline: as §1
# [23] = target: GlcNAc(b1-3)Gal(b1-4)GlcNAc(b1-3)Gal(b1-4)GlcNAc(b1-2)Man(a1-3)[GlcNAc(b1-3)Gal(b1-4)GlcNAc(b1-3)Gal(b1-4)GlcNAc(b1-2)Man(a1-6)]Man(b1-4)GlcNAc(b1-4)[Fuc(a1-6)]GlcNAc
# Outline: as §1
# [24] = target: GlcNAc(b1-3)Gal(b1-4)GlcNAc(b1-3)Gal(b1-4)GlcNAc(b1-2)[GlcNAc(b1-3)Gal(b1-4)GlcNAc(b1-3)Gal(b1-4)GlcNAc(b1-6)]Man(a1-6)[GlcNAc(b1-3)Gal(b1-4)GlcNAc(b1-3)Gal(b1-4)GlcNAc(b1-2)Man(a1-3)]Man(b1-4)GlcNAc(b1-4)[Fuc(a1-6)]GlcNAc
# Outline: as §1
# [25] = target: GlcNAc(b1-3)Gal(b1-4)GlcNAc(b1-3)Gal(b1-4)GlcNAc(b1-3)Gal(b1-4)GlcNAc(b1-2)Man(a1-3)[GlcNAc(b1-3)Gal(b1-4)GlcNAc(b1-3)Gal(b1-4)GlcNAc(b1-3)Gal(b1-4)GlcNAc(b1-2)Man(a1-6)]Man(b1-4)GlcNAc(b1-4)GlcNAc
# Outline: as §1
# [26] = target: GlcNAc(b1-3)Gal(b1-4)GlcNAc(b1-3)Gal(b1-4)GlcNAc(b1-3)Gal(b1-4)GlcNAc(b1-2)Man(a1-3)[GlcNAc(b1-3)Gal(b1-4)GlcNAc(b1-3)Gal(b1-4)GlcNAc(b1-3)Gal(b1-4)GlcNAc(b1-2)Man(a1-6)]Man(b1-4)GlcNAc(b1-4)[Fuc(a1-6)]GlcNAc
# Outline: as §1
# [27] = target: GlcNAc(b1-3)Gal(b1-4)GlcNAc(b1-3)Gal(b1-4)GlcNAc(b1-3)Gal(b1-4)GlcNAc(b1-2)[GlcNAc(b1-3)Gal(b1-4)GlcNAc(b1-3)Gal(b1-4)GlcNAc(b1-3)Gal(b1-4)GlcNAc(b1-6)]Man(a1-6)[GlcNAc(b1-3)Gal(b1-4)GlcNAc(b1-3)Gal(b1-4)GlcNAc(b1-3)Gal(b1-4)GlcNAc(b1-2)Man(a1-3)]Man(b1-4)GlcNAc(b1-4)[Fuc(a1-6)]GlcNAc
# Outline: as §1
# [28] = target: GlcNAc(b1-3)Gal(b1-4)GlcNAc(b1-3)Gal(b1-4)GlcNAc(b1-3)Gal(b1-4)GlcNAc(b1-3)Gal(b1-4)GlcNAc(b1-2)Man(a1-3)[GlcNAc(b1-3)Gal(b1-4)GlcNAc(b1-3)Gal(b1-4)GlcNAc(b1-3)Gal(b1-4)GlcNAc(b1-3)Gal(b1-4)GlcNAc(b1-2)Man(a1-6)]Man(b1-4)GlcNAc(b1-4)GlcNAc
# Outline: as §1
# [29] = target: GlcNAc(b1-3)Gal(b1-4)GlcNAc(b1-3)Gal(b1-4)GlcNAc(b1-3)Gal(b1-4)GlcNAc(b1-3)Gal(b1-4)GlcNAc(b1-2)Man(a1-3)[GlcNAc(b1-3)Gal(b1-4)GlcNAc(b1-3)Gal(b1-4)GlcNAc(b1-3)Gal(b1-4)GlcNAc(b1-3)Gal(b1-4)GlcNAc(b1-2)Man(a1-6)]Man(b1-4)GlcNAc(b1-4)[Fuc(a1-6)]GlcNAc
# Outline: as §1
# [30] = target: GlcNAc(b1-3)Gal(b1-4)GlcNAc(b1-3)Gal(b1-4)GlcNAc(b1-3)Gal(b1-4)GlcNAc(b1-3)Gal(b1-4)GlcNAc(b1-2)[GlcNAc(b1-3)Gal(b1-4)GlcNAc(b1-3)Gal(b1-4)GlcNAc(b1-3)Gal(b1-4)GlcNAc(b1-3)Gal(b1-4)GlcNAc(b1-6)]Man(a1-6)[GlcNAc(b1-3)Gal(b1-4)GlcNAc(b1-3)Gal(b1-4)GlcNAc(b1-3)Gal(b1-4)GlcNAc(b1-3)Gal(b1-4)GlcNAc(b1-2)Man(a1-3)]Man(b1-4)GlcNAc(b1-4)[Fuc(a1-6)]GlcNAc
# Outline: as §1
# [31] = target: GlcNAc(b1-3)Gal(b1-4)GlcNAc(b1-3)Gal(b1-4)GlcNAc(b1-3)GalNAc
# Outline: as §1
# [32] = target: GlcNAc(b1-3)Gal(b1-4)GlcNAc(b1-3)GalNAc
# Outline: as §1
# [33] = target: GlcNAc(b1-3)Gal(b1-4)GlcNAc(b1-3)[GlcNAc(b1-3)Gal(b1-4)GlcNAc(b1-3)]GalNAc
# Outline: as §1
# [34] = target: GlcNAc(b1-3)Gal(b1-4)GlcNAc(b1-6)[Gal(b1-3)]GalNAc
# Outline: as §1
# [35] = target: GlcNAc(b1-3)Gal(b1-4)GlcNAc(b1-6)[GlcNAc(b1-3)Gal(b1-3)]GalNAc
# Outline: as §1
# [36] = target: GlcNAc(b1-3)Gal(b1-4)GlcNAc(b1-6)[GlcNAc(b1-3)]Gal(b1-4)GlcNAc
# Outline: as §1
# [37] = target: GlcNAc(b1-3)GalNAc
# Outline: as §1
binder,measurement,setting,value
PX14379D-pdi-530-26-530 (Parabacteroides distasonis) (protein) DETVYDKLPADDFGQSTAELNALIGNSHNTMKKFWTEYMHLSECSGSMAVTPTRRGGDWYDGGQYREIYMHTWTSQTSRVKSAWKAATEAIGTCNEAIRKLQNSEILTEEEKAQDVADLRGVRAFWIYVMMDYWGNIPLLTEFHPTDKVFPGNSSRQEVFDWLIQEVEEIKDICPPATTENYGSFTQGAAYSLLAKLYLNAEAWGVTFSGNAYQKVIDNCDKVMAMGYILEPNWKDNFSVTNENSKEAILAATFSSSDTGNDGNVKNELHNNTLHYKDYLSLGITASGTWNGICAQPEYVRLFDEEDARLDGTFLTGLMIDKSTGKPIMTDHNNELNHTIDVNMIPGMEYDGTNWSAVEQHDGARCFKWEFASDLTSSMGNDFHIFRLADIYLMKAEALLRGGGSVSEATALVNTIRERGYGNSDHNYATVTLKEVQLERRLELAWEVYSRQDDIRFGCFTTGMWPQSNCERKADDYLKLLPVSQDAWQVNPNLKQNPGYAAFSK,glycan array binding signal (z-score),[1],0.032
same,glycan array binding signal (z-score),[2],-0.793
same,glycan array binding signal (z-score),[3],0.597
same,glycan array binding signal (z-score),[4],-0.383
same,glycan array binding signal (z-score),[5],0.105
same,glycan array binding signal (z-score),[6],-0.409
same,glycan array binding signal (z-score),[7],-0.123
same,glycan array binding signal (z-score),[8],-0.189
same,glycan array binding signal (z-score),[9],-0.785
same,glycan array binding signal (z-score),[10],-0.244
same,glycan array binding signal (z-score),[11],-0.08
same,glycan array binding signal (z-score),[12],-0.725
same,glycan array binding signal (z-score),[13],0.618
same,glycan array binding signal (z-score),[14],0.118
same,glycan array binding signal (z-score),[15],0.552
same,glycan array binding signal (z-score),[16],-0.587
same,glycan array binding signal (z-score),[17],-0.004
same,glycan array binding signal (z-score),[18],0.758
same,glycan array binding signal (z-score),[19],0.749
same,glycan array binding signal (z-score),[20],2.11
same,glycan array binding signal (z-score),[21],-0.149
same,glycan array binding signal (z-score),[22],2.91
same,glycan array binding signal (z-score),[23],2.19
same,glycan array binding signal (z-score),[24],1.55
same,glycan array binding signal (z-score),[25],-0.101
same,glycan array binding signal (z-score),[26],2.19
same,glycan array binding signal (z-score),[27],0.906
same,glycan array binding signal (z-score),[28],-0.442
same,glycan array binding signal (z-score),[29],0.569
same,glycan array binding signal (z-score),[30],0.713
same,glycan array binding signal (z-score),[31],-1.19
same,glycan array binding signal (z-score),[32],0.694
same,glycan array binding signal (z-score),[33],-0.79
same,glycan array binding signal (z-score),[34],-0.28
same,glycan array binding signal (z-score),[35],0.841
same,glycan array binding signal (z-score),[36],-0.751
same,glycan array binding signal (z-score),[37],-0.05

# Two consecutive entries from above, for reference:
binder,measurement,setting,value
PX14379D-pdi-530-26-530 (Parabacteroides distasonis) (protein) DETVYDKLPADDFGQSTAELNALIGNSHNTMKKFWTEYMHLSECSGSMAVTPTRRGGDWYDGGQYREIYMHTWTSQTSRVKSAWKAATEAIGTCNEAIRKLQNSEILTEEEKAQDVADLRGVRAFWIYVMMDYWGNIPLLTEFHPTDKVFPGNSSRQEVFDWLIQEVEEIKDICPPATTENYGSFTQGAAYSLLAKLYLNAEAWGVTFSGNAYQKVIDNCDKVMAMGYILEPNWKDNFSVTNENSKEAILAATFSSSDTGNDGNVKNELHNNTLHYKDYLSLGITASGTWNGICAQPEYVRLFDEEDARLDGTFLTGLMIDKSTGKPIMTDHNNELNHTIDVNMIPGMEYDGTNWSAVEQHDGARCFKWEFASDLTSSMGNDFHIFRLADIYLMKAEALLRGGGSVSEATALVNTIRERGYGNSDHNYATVTLKEVQLERRLELAWEVYSRQDDIRFGCFTTGMWPQSNCERKADDYLKLLPVSQDAWQVNPNLKQNPGYAAFSK,glycan array binding signal (z-score),[32],0.694
same,glycan array binding signal (z-score),[33],-0.79
